Laboratory results reported in the supplement of paper PMC7666118.
The list shows a part of the results.

Amino acid sequences for entries named in this document (tags omitted). A change or cut given only in a name is not applied to a line headed by its entry.
UniProt Q99623, whole entry: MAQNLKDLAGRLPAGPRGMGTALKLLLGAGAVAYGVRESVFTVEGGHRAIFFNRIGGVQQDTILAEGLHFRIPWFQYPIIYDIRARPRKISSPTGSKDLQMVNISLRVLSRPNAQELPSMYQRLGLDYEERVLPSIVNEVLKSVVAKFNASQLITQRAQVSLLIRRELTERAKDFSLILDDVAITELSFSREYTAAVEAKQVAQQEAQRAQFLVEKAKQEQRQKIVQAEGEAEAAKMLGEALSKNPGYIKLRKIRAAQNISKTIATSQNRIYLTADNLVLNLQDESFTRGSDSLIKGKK
UniProt Q8TEQ8: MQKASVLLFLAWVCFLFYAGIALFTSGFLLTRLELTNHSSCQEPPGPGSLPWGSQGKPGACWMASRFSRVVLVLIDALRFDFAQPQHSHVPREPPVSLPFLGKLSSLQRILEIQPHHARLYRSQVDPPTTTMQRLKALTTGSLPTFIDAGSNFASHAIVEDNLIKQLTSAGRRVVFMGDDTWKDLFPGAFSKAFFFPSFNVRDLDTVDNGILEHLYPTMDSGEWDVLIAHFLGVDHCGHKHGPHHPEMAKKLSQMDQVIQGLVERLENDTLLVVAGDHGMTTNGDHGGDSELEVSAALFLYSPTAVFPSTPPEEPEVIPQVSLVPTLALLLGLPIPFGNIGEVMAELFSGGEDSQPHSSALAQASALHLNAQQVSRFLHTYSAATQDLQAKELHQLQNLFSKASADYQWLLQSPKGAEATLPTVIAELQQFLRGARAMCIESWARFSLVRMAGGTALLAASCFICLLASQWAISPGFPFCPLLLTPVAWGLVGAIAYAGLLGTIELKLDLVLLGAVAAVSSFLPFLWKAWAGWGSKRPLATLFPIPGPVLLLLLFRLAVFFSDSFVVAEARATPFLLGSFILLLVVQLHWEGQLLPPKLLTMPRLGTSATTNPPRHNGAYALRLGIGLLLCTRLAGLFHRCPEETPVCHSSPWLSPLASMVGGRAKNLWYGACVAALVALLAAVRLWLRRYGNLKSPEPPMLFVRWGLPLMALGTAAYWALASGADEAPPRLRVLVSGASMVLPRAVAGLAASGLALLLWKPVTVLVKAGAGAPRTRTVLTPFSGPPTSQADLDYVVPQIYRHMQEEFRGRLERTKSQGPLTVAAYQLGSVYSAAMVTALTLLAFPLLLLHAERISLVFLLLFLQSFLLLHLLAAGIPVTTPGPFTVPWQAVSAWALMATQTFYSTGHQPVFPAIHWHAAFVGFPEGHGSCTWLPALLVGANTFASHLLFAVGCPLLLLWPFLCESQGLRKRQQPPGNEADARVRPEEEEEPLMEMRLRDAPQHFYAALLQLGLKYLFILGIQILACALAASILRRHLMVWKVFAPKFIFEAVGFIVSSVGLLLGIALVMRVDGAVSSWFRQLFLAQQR
UniProt P78356: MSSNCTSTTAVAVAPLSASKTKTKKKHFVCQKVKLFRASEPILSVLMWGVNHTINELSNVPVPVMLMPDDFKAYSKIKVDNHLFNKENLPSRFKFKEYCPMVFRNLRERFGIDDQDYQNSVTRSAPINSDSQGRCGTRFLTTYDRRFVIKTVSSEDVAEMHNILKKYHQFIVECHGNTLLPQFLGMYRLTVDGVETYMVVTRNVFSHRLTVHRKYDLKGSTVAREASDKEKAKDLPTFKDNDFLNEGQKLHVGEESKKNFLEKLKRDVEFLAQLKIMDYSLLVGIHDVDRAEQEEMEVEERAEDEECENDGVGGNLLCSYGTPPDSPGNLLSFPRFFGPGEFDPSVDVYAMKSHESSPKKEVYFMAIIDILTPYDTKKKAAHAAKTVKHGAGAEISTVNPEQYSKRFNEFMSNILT
UniProt O75145: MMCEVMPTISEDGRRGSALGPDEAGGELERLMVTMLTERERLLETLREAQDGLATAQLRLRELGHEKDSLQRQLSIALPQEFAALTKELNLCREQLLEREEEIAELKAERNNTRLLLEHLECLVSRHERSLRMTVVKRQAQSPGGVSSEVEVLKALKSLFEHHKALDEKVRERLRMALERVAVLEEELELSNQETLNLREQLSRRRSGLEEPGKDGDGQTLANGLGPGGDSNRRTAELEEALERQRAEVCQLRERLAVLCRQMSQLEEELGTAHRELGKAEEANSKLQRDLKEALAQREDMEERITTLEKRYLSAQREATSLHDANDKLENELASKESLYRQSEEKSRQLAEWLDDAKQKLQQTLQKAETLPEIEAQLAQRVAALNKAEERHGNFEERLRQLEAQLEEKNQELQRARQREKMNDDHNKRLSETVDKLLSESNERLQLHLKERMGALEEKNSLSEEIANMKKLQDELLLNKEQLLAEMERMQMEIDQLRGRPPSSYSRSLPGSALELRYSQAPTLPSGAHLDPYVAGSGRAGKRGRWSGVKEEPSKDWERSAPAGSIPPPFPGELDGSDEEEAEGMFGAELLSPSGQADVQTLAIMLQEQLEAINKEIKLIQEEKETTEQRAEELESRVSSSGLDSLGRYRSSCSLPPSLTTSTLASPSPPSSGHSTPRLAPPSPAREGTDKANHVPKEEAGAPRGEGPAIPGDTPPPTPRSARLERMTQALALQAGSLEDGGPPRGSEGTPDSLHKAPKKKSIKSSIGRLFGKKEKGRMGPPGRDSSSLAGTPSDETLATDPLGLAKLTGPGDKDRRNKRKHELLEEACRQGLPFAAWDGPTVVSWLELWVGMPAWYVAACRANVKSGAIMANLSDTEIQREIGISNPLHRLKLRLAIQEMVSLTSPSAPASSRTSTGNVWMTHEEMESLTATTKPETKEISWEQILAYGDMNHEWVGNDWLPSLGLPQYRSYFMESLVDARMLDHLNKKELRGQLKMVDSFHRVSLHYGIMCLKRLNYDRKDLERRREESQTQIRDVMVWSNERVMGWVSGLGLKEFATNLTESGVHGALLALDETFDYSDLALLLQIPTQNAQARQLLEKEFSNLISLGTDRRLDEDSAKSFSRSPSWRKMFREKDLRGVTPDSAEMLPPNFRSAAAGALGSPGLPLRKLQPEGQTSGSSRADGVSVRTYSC
UniProt Q13492: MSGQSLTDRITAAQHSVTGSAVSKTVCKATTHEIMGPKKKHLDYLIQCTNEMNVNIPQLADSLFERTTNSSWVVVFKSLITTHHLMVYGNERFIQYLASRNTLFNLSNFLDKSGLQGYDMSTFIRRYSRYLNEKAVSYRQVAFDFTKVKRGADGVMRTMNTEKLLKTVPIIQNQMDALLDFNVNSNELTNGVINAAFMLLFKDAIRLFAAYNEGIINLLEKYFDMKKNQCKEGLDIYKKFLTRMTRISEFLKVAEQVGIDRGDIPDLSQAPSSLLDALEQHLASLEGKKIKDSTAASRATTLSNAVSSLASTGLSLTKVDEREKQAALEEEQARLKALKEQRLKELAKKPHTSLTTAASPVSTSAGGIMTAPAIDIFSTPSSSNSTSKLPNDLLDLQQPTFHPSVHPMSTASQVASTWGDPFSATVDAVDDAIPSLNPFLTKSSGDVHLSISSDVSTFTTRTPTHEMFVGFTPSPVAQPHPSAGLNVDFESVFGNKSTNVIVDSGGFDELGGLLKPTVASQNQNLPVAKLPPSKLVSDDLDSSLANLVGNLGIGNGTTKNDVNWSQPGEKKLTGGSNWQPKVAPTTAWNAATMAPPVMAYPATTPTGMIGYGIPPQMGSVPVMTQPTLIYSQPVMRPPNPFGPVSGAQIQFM
UniProt P30405: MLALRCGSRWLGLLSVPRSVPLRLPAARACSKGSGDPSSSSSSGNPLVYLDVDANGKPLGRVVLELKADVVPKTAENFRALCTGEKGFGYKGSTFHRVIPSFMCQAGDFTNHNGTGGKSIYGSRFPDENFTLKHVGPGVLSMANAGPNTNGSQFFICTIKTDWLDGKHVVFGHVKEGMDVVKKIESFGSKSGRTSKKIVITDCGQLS
UniProt Q92643: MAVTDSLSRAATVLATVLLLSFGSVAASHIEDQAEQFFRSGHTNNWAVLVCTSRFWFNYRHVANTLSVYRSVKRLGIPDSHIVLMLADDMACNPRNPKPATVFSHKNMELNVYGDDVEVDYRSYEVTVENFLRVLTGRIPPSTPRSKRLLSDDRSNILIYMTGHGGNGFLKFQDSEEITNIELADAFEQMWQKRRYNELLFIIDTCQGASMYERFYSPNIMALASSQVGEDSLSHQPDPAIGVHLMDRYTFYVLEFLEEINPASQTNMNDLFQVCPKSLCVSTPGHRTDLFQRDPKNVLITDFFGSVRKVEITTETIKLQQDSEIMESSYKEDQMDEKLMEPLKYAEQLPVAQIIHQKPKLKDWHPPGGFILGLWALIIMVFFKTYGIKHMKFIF
UniProt P05423: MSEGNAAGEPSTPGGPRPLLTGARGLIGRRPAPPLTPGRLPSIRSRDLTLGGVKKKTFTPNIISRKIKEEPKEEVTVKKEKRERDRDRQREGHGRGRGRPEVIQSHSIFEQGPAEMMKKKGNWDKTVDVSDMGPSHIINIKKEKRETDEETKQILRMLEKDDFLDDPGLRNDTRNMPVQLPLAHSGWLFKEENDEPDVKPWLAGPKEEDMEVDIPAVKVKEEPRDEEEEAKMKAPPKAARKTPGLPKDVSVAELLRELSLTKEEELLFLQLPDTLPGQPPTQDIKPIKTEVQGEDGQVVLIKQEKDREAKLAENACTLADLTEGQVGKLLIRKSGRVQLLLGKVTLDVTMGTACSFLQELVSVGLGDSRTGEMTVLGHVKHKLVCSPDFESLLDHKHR
UniProt Q9BTU6: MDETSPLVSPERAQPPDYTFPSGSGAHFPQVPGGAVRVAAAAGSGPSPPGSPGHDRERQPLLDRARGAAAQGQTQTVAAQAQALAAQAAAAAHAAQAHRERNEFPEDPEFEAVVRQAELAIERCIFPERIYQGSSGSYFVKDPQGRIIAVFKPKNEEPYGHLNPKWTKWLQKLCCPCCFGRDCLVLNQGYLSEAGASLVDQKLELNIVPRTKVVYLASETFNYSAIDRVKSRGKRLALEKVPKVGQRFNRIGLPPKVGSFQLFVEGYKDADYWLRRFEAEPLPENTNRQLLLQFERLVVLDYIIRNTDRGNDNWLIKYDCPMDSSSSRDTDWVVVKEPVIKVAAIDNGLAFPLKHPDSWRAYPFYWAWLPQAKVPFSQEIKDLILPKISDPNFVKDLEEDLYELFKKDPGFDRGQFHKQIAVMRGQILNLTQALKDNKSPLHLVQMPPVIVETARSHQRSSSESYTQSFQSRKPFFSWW
UniProt O60828: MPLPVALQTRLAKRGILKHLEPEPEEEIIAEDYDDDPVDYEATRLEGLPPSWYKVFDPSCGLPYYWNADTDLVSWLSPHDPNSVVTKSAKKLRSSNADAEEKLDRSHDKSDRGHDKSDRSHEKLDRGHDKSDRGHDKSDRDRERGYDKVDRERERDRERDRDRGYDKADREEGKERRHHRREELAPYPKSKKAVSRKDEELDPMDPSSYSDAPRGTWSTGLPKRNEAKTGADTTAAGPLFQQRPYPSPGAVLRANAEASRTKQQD
UniProt Q00169: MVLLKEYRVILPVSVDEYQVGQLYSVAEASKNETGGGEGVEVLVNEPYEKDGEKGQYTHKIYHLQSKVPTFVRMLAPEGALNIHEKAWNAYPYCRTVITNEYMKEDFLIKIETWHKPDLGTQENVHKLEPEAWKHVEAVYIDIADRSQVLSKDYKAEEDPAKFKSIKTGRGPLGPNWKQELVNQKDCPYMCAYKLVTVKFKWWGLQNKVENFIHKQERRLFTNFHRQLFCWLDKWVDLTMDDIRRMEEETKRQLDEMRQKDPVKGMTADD
UniProt Q92733: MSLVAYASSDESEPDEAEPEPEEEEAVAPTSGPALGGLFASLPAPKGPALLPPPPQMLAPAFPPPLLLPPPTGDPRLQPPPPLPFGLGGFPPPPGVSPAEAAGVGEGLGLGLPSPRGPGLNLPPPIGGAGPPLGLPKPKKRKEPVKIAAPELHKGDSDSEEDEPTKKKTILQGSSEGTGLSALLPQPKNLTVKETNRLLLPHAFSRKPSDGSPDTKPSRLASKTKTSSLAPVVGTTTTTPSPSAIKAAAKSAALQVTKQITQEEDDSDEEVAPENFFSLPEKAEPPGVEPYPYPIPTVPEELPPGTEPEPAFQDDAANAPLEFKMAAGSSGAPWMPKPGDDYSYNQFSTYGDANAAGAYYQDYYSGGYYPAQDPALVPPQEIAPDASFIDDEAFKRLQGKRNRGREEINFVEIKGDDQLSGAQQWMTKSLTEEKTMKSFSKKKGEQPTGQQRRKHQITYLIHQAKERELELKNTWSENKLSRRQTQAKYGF
UniProt P13727: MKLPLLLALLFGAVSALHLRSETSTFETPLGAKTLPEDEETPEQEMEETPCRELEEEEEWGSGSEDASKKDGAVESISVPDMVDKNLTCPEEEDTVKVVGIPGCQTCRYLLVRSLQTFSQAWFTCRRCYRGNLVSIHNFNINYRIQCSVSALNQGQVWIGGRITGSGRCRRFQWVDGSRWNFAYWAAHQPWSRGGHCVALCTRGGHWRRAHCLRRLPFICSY

Compound: COc1ccc(Cn2ccc3ccc(C(=O)NO)cc32)cc1
Experiment: dose-dependent thermal stabilisation call (2D-TPP, DLPTP, 10% FDR) (binary (1 = stabilised)); higher = stabilised by the compound
Details: system: HL-60 intact cells; concentration range 0.04-10 µM

Target | dose-dependent thermal stabilisation call
PHB2 (UniProt Q99623) | inactive: 0
PRKCB (UniProt P05771) | inactive: 0
PIGO (UniProt Q8TEQ8) | inactive: 0
PPP6C (UniProt O00743) | inactive: 0
PIGA (UniProt P37287) | inactive: 0
PPWD1 (UniProt Q96BP3) | inactive: 0
PGS1 (UniProt Q32NB8) | inactive: 0
PPT2 (UniProt Q9UMR5) | inactive: 0
PKM2 (UniProt P14618) | inactive: 0
PI4KB (UniProt Q9UBF8) | inactive: 0
PRKCA (UniProt P17252) | inactive: 0
PIP4K2B (UniProt P78356) | inactive: 0
PGM2 (UniProt Q96G03) | inactive: 0
PM20D2 (UniProt Q8IYS1) | inactive: 0
PPP2CA (UniProt P67775) | inactive: 0
PPFIA3 (UniProt O75145) | inactive: 0
PPOX (UniProt P50336) | inactive: 0
PPFIBP2 (UniProt Q8ND30) | inactive: 0
PPIE (UniProt Q9UNP9) | inactive: 0

Target | dose-dependent thermal stabilisation call
PICALM (UniProt Q13492) | inactive: 0
PODXL (UniProt O00592) | inactive: 0
PPIF (UniProt P30405) | inactive: 0
PIGK (UniProt Q92643) | inactive: 0
PLEKHO2 (UniProt Q8TD55) | inactive: 0
PIP5K3 (UniProt Q9Y2I7) | inactive: 0
POLR3D (UniProt P05423) | inactive: 0
PI4K2A (UniProt Q9BTU6) | inactive: 0
POLR2J2 (UniProt Q9GZM3) | inactive: 0
PQBP1 (UniProt O60828) | inactive: 0
PLCB3 (UniProt Q01970) | inactive: 0
PLRG1 (UniProt O43660) | inactive: 0
PRKAR1B (UniProt P31321) | inactive: 0
PITPNA (UniProt Q00169) | inactive: 0
PHF3 (UniProt Q92576) | inactive: 0
PRKCSH (UniProt P14314) | inactive: 0
PRAM1 (UniProt Q96QH2) | inactive: 0
PRCC (UniProt Q92733) | inactive: 0
PRG2 (UniProt P13727) | inactive: 0

Reformatted as tab-separated lines: entries from further up
Target	dose-dependent thermal stabilisation call
PI4K2A (UniProt Q9BTU6)	inactive: 0
POLR2J2 (UniProt Q9GZM3)	inactive: 0
PQBP1 (UniProt O60828)	inactive: 0
PLCB3 (UniProt Q01970)	inactive: 0
PLRG1 (UniProt O43660)	inactive: 0
PRKAR1B (UniProt P31321)	inactive: 0
PITPNA (UniProt Q00169)	inactive: 0
PHF3 (UniProt Q92576)	inactive: 0
PRKCSH (UniProt P14314)	inactive: 0
PRAM1 (UniProt Q96QH2)	inactive: 0
